Test results taken from PubChem BioAssay AID1671190 (National Center for Advancing Translational Sciences (NCATS), 2021).
Several values for one entry are separate records, joined by “and”; a condition that tells them apart may be missing. Identical values can stand only once. The whole screen tested about 580,000 compounds, of which about 6,100 (1.1%) were called active. Inconclusive means that the source gave no clear call. Such entries were picked first, then a sample of the others. The call rests on the fitted dose curve; in most records, active means well fitted inhibition curve with a large enough effect; inconclusive means small, poorly fitted or top-dose-only effect, or another doubt; inactive means no such curve, though single readings can be large or run the other way. Where the call is inconclusive, the potency comes from a doubtful curve fit.

Chains of the proteins cited; added tags and fusions are not shown.
UniProt P18054, whole entry, looked up: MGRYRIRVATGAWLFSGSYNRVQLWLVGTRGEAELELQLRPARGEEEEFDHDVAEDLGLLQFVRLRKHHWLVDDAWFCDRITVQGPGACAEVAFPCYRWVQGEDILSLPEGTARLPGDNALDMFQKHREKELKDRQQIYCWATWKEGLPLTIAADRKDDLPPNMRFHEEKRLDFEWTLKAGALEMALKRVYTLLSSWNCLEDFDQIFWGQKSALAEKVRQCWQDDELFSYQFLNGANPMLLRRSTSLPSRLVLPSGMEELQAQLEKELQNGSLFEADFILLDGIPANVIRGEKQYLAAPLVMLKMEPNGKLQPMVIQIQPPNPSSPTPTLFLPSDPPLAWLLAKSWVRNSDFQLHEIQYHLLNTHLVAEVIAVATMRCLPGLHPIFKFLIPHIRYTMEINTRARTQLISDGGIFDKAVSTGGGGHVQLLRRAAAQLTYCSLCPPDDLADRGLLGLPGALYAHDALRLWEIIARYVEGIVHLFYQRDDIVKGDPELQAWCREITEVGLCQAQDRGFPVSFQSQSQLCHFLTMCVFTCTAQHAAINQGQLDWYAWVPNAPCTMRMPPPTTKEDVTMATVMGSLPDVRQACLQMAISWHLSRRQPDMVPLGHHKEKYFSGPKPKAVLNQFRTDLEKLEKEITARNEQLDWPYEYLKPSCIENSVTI

biological target: Polyunsaturated fatty acid lipoxygenase ALOX12 (Homo sapiens) (UniProt P18054); test: Primary qHTS assay for inhibitors of human arachidonate 12S-lipoxygenase (ALOX12): Round 2; conditions: purified 12hLO, xylenol orange hydroperoxide absorbance; activity change, negative = inhibition: at 108 µM (top of the series) unless noted
Method in brief: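 Hydroperoxide product was detected by ferrous iron/xylenol orange as the 573 to 405 nm absorbance ratio. Arachidonic acid at 40 uM (final) was turned over for 30 min at room temperature by 150 nM human 12hLO, pH 7.0 Hepes buffer, after 15 min compound preincubation.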
On the % scale 0 is the no-effect control and ±100 the full control effect; potency means the concentration at half of the fitted maximal effect.

Row | SMILES | Potency | activity change, negative = inhibition
1 | Cc1ccc(C)c(N2CCN(C(=O)c3noc(-c4ccc[nH]c4=O)n3)CC2)c1 | inactive | –
2 | O=C(NC(=S)NCc1ccc(-c2nc3ccccc3s2)cc1)c1ccco1 | active: 11.2 µM | –
3 | CN1C[C@@H](NC(=O)CC(C)(C)CC(=O)O)C[C@H]1c1nc(-c2ccccn2)no1 | inactive | –
4 | O=C(NC(=S)Nc1ccc(S(=O)(=O)Nc2nccs2)cc1)c1ccc(F)cc1 | inconclusive: 22.4 µM [inhibitor, partial curve] | –
5 | Cn1cccc1CN1CCCC2(Cc3ccccc3CNC2=O)C1 (stereo unspecified) | – | inactive: 5.29% [at 6.33 µM]
6 | N=C(N)SCc1ccc(Cl)c(Cl)c1 | inconclusive: 50.1 µM [inhibitor, partial curve, poor fit] | –
7 | O=C(Nc1ccc(F)cc1)NC1CCN(Cc2nnnn2Cc2ccco2)CC1 | inconclusive: 44.7 µM [inhibitor, partial curve, poor fit] | –
8 | Nc1ccc2nc3c(=O)n(C4CCCCC4)c(=O)[nH]c3nc2c1 | inactive | –
9 | C[C@H](O)C(=O)C1=Nc2c(nc(N)[nH]c2=O)NC1 | inconclusive: 50.1 µM [inhibitor, partial curve, poor fit] | –
10 | Cc1cc2[nH]c(=O)cc(-c3ccccc3)n2n1 | inconclusive: 7.08 µM [inhibitor, partial curve, poor fit] | –
11 | O=C1N(Nc2ccccc2)C(c2ccc(Br)cc2)C12CCCCC2 (stereo unspecified) | inconclusive: 112 µM [inhibitor, single point] | –
12 | COc1ccc(/C=C2\SC(=S)N(NS(=O)(=O)c3ccccc3)C2=O)c(OC)c1 | inconclusive: 89.1 µM [inhibitor, single point] | –
13 | C[C@@H](CN1C2=NC[C@H](Cc3ccc(O)cc3)N2C[C@H]1Cc1ccc(O)cc1)NC(=O)CCC1CCCCC1 | inconclusive: 70.8 µM [inhibitor, partial curve, poor fit] | –
14 | CCOCCCn1c(=S)[nH]c2cc(C(=O)NC3CCCCC3C)ccc2c1=O (stereo unspecified) | inactive | –
15 | CC1CCCN(c2ccc([N+](=O)[O-])s2)C1 (stereo unspecified) | inconclusive: 44.7 µM [inhibitor, partial curve, poor fit] | –
16 | O=C(CCCCCN1C(=O)CCC1=O)Nc1ncn[nH]1 | inactive | –
17 | CS(=O)(=O)CCN1CCN(c2ccccc2O)CC1 | inconclusive: 50.1 µM [inhibitor, single point] | –
18 | CCOC(=O)N1C(=O)C[C@](Sc2ccc(OC)cc2)(c2nc(C)no2)[C@H]1c1ccc(OC)cc1 | inconclusive: 63.1 µM [inhibitor, partial curve, poor fit] | –
19 | CN1C(=O)[C@H]2[C@@H](c3ccccc3)N[C@]3(CCCN(Cc4ccco4)C3=O)[C@H]2C1=O | inconclusive: 7.94 µM [inhibitor, full curve, poor fit] | –
20 | O=C1C(=C2CCCCC2)SC(=S)N1Cc1ccco1 | inconclusive: 0.891 µM [inhibitor, full curve, poor fit] | –
21 | O=C(CSc1n[nH]c(-c2ccco2)n1)Nc1ccccc1F | inconclusive: 56.2 µM [inhibitor, partial curve, poor fit] | –

Row | SMILES | Potency | activity change, negative = inhibition
22 | CN1CC(=O)N(C2CCNCC2)Cc2c(NCCc3cccc(F)c3)ncnc21 | active: 17.8 µM | –
23 | CCN(Cc1ccccc1)C(=O)c1cn(-c2cccc(Cl)c2)nn1 | inconclusive: 141 µM [inhibitor, partial curve, poor fit] | –
24 | c1cc(CNCCCN2CCCCC2)cs1 | inconclusive: 39.8 µM [inhibitor, partial curve, poor fit] | –
25 | CCN(CC)CCNC(=O)c1[nH]c2ccc(OCc3ccccc3)cc2c1C | inconclusive: 50.1 µM [inhibitor, partial curve, poor fit] | –
26 | COc1ccc(CCNC(=O)Cc2c(C)c3c(OC)cc(OC)cc3oc2=O)cc1 | inconclusive: 100 µM [inhibitor, partial curve, poor fit] | –
27 | COc1cccc(Cn2nnc3c(=O)[nH]c(C4CCCN(C(=O)c5ccccc5Cl)C4)nc32)c1 (stereo unspecified) | inconclusive: 100 µM [inhibitor, partial curve, poor fit] and inconclusive: 158 µM [inhibitor, single point] | –
28 | Oc1cccc(-c2cc(-c3cccnc3)c3cncn3c2)c1 | inconclusive: 56.2 µM [inhibitor, full curve] | –
29 | Cc1cccc(-n2cc(CN3CCN(c4ccccn4)CC3)c(-c3cccc(F)c3)n2)c1 | inactive | –
30 | CCOc1ccc2cc(-c3csc(Nc4ccc(C)cc4)n3)c(=O)oc2c1 | inconclusive: 25.1 µM [inhibitor, partial curve, poor fit] | –
31 | C=CCOc1ccccc1CNn1c(C)n[nH]c1=S | inconclusive: 100 µM [inhibitor, single point] | –
32 | CCN(CC)c1ccc(NC(=O)COc2ccc(-n3cnnn3)cc2)cc1 | – | inconclusive: -31.4% [inhibitor]
33 | COCCn1cnc2c1c(=O)n(CC(=O)Nc1c(C)cccc1C)c(=O)n2CC(C)C | inactive | –
34 | CCNc1cc(N2CCC(CCC(=O)NCCc3ccccn3)CC2)ncn1 | inactive | –
35 | O=C(c1ccccc1Oc1ccccc1)N1CCC(c2nc3ccccc3o2)CC1 | inactive | –
36 | CC(C)(C)c1ccc(C(=O)N2CCCC(c3nc4c(nnn4Cc4cccc(F)c4)c(=O)[nH]3)C2)cc1 (stereo unspecified) | inconclusive: 112 µM [inhibitor, partial curve, poor fit] | –
37 | Cc1cccc(NC(=S)NC2CCCC2)n1 | active: 44.7 µM | –
38 | CCCCn1c(N)c(N(CC)C(=O)c2cc(-c3ccc(OC)cc3)nc3ccccc23)c(=O)[nH]c1=O | inconclusive: 50.1 µM [inhibitor, partial curve, poor fit] | –
39 | O=C1NCc2ccccc2CC12CCN(Cc1c[nH]c3ccccc13)C2 (stereo unspecified) | inconclusive: 44.7 µM [inhibitor, partial curve, poor fit] | –
40 | O=c1cc(CO)oc(CN2CCN(c3ccccc3)CC2)c1O | inconclusive: 39.8 µM [inhibitor, single point] | –
41 | COc1ccc(C2N(c3cc(C)on3)C(=O)C3CCCN32)cc1OC (stereo unspecified) | inconclusive: 22.4 µM [inhibitor, partial curve, poor fit] | –
